# Laboratory results from patent US20250368752A1 (AMPSOURCE BIOPHARMA SHANGHAI, published 2025).
# Results are given in words; binding and its absence hold for the method and conditions named. Some entries that bind do so weakly or less than the wild type.
# B1: mouse monoclonal antibody against human TFPI, mAb3-71 (antibody, V domains shown)
# VH: QVQLQQPEAELMKPGASVKLSCKASGYTFTSYWMHWVKQRPGQGLEWIGEIKPDNGRINYNEKFKTKATLAVDKSSSTAYMQLNSLTSGDSAVYYCARSSVVDVAMDYWGQGTSVSVSS
# VL: QIVLTQSPAIMSASPGEKVTLTCSASSSVSSSYLYWYQQKPGSSPKLWISGTSILASGVPARFSGSGSGTSYSLTISSMEAEDTASYFCHQWSHYPFTFGSGTKLEIK
# notes: also called hybridoma cell line #3-71
# Biological target: T1, human TFPI with a His tag (human, UniProt P10646 29-282, limits assumed)
# T1 construct: Coupled to Ni-NTA sensors at 10 ug/mL for BLI; not shown: His tag
# T1 sequence (looked up): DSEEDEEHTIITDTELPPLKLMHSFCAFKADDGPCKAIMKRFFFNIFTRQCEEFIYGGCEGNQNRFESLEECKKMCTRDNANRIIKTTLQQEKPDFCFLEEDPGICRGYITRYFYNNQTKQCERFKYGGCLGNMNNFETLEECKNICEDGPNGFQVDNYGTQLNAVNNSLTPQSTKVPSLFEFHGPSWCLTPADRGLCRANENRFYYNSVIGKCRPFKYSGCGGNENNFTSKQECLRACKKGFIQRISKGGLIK
# Test: BLI (ForteBio Octet), His-tagged human TFPI on Ni-NTA sensors
binder,measurement,value
B1,binding,binds
